Measured values reported in PubChem BioAssay AID651640 (Broad Institute, 2012).
Out of some 350,000 compounds screened, about 6,000 (1.7%) were called active. This list was built around the results that the source calls inconclusive (neither active nor inactive); the mix of calls is not that of the screen. Rule as the data show it: active = CPE inhibition above about 20% (passing the limit was not always enough); inconclusive = no clear call, values can overlap the other calls; tested in BHK-21 cells. The source holds several records for some structures; these can differ, active in one and inactive in another.

Assay: protection of cells from dengue 2 killing – plate reader, single concentration, primary screen (AID 651640);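 also: 0% = median of neutral control wells and 100% = median of positive control wells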
Settings: DENV2-infected cells, cytopathic effect rescue, at 9.99 µM, active compounds read high

Row | Structure (SMILES) | CPE inhibition
1 | CN1CCC(N(C)c2ccc(C(N)=O)cc2[N+](=O)[O-])CC1 | inconclusive: 26.6%
2 | COC(=O)[C@H]1[C@H](CO)[C@H]2Cn3c(ccc(C4=CCCCC4)c3=O)[C@@H]1N2CCc1ccccc1 | inactive: -11.9%
3 | COc1ccc(N2C(=O)/C(=C/c3ccc(N(C)C)o3)C(=O)NC2=S)cc1 | inconclusive: 25.3%
4 | O=C(O)C(Br)Br | active: 69.9%
5 | CN1CCCC2c3ccccc3CCC21 (stereo not given) | inconclusive: 34.2%
6 | CN1CCN(c2ccc3nccnc3c2)CC1 | inconclusive: 30.6%
7 | CCC(C)c1cnc(CC(C)C)c(=O)n1O (stereo not given) | active: 59.5%
8 | COc1ccc(Br)cc1CNCCc1cccc(Cl)c1 | inconclusive: 20.5%
9 | CN1C(=O)N(C)C(=O)C(NS(=O)(=O)c2ccc(N)cc2)(c2ccccc2)C1=O | inconclusive: 51.5%
10 | Nc1cnn(-c2ccccc2)c(=O)c1Cl | active: 30.3%
11 | CCOc1ccc(NC(=O)CCNC(=O)N2C[C@H]3C[C@@H](C2)c2cccc(=O)n2C3)cc1 | inconclusive: 21%
12 | Clc1ccc([C@H]2CC3CCC2N3)cn1 (stereo not given in full) | active: 48.8%
13 | NCCc1c[nH]c2ccc(C(N)=O)cc12 | inconclusive: 21.8%
14 | O=c1oc2ccccc2c(O)c1C(c1ccc([N+](=O)[O-])cc1)c1c(O)c2ccccc2oc1=O | inactive: -1.14%
15 | CCOC(=O)[C@]12Cc3cc(OC)c(OC)cc3[C@H]1N(Cc1ccccc1)C(=O)c1ccccc12 | inconclusive: 21.4%
16 | Cc1ccc(/C=C2\C(=O)NC(=O)N(CC3CCCO3)C2=O)s1 (stereo not given) | active: 29.9%
17 | CC(C)(Cl)[N+](=O)[O-] | active: 130%
18 | C=CCN1CC[C@]23c4c5ccc(O)c4OC2[C@H](O)CC[C@@]3(O)[C@H]1C5 (stereo not given in full) | inconclusive: 72.5%
19 | CCN1C(=O)CC(=O)N(CC)C1=S | inconclusive: 24.1%
20 | c1ccc(CN2CCN(Cc3ccc4ccccc4c3)CC2)cc1 | inactive: 11.3%
21 | c1ccc(N2[C@@H]3CC[C@H]2c2ccncc2C3)cc1 | inactive: -5.02%
22 | COc1ccc(C(O)(c2ccccc2)c2ccncc2)cc1 (stereo not given) | inconclusive: 40.8%

Row | Structure (SMILES) | CPE inhibition
23 | O=c1[nH]c(O)c(C=Nc2cc(F)cc(F)c2)c(=O)[nH]1 | inconclusive: 43.2%
24 | Cn1cc(C(=O)OCC(=O)NC2(C#N)CCCCC2)c2ccccc21 | inconclusive: 41.3%
25 | COc1ccc(-n2nc(C(=O)NCC(=O)N3CCC4(CC3)OCCO4)c3ccccc3c2=O)cc1 | inconclusive: 29.3%
26 | COc1cccc(C(=O)C2CCCN(Cc3cccc(C)n3)C2)c1 (stereo not given) | inactive: -8.8%
27 | COC(=O)C1=C(c2cccc(OCc3ccccc3)c2)C[C@@H]2CC[C@H]1N2C(=O)NCCOc1ccccc1 | active: 90%
28 | CCC(=O)c1ccc(OCC(=O)N2CCN(CC(=O)Nc3ccc(C)cc3)CC2)cc1 | inconclusive: 68.8%
29 | COC(=O)C1=C(c2ccc(F)cc2F)C[C@@H]2CC[C@H]1N2C(=O)NCc1ccco1 | inconclusive: 20.4%
30 | C[C@@H]1CN([C@@H](C)CO)C(=O)CCCn2nncc2CO[C@H]1CN(C)C(=O)Oc1ccc2ccccc2c1 | active: 50.2%
31 | CCCCCCOc1ccc(CN2CCN(C)CC2)cc1 | inactive: -4.87%
32 | FC(F)(F)c1ccc(-c2ccc3c(c2)CNCc2cnnn2-3)cc1 | inconclusive: 21.4%
33 | COC(=O)C1=C(c2ccc(OC(F)(F)F)cc2)C[C@@H]2CC[C@H]1N2C(=O)NCCOc1ccc(OC)cc1 | active: 26%
34 | CCOC(=O)C1CCCN(c2ccc([N+](=O)[O-])c3nonc23)C1 (stereo not given) | inactive: -5.3%
35 | CCOc1ccc(Cl)cc1CNCCc1ccccc1F | inconclusive: 57.4%
36 | c1ccc(C2CC2)c(OCC2=NCCN2)c1 | active: 74.6%
37 | O=C(N/N=C/c1c(O)n(Cc2ccc(F)cc2)c(=O)[nH]c1=O)c1ccccc1 | inactive: 8.67%
38 | O=S1(=O)CCN(CCc2c[nH]c3ccccc23)CC1 | inactive: 1.14%
39 | CCOCCCNC(=O)C1c2cc(OC)c(OC)cc2C(=O)N2CCCCC12 (stereo not given) | inconclusive: 41%
40 | CSCCC(c1nnnn1C(C)(C)C)N1CCC2(CC1)C(=O)NCN2c1ccccc1 (stereo not given) | inconclusive: 20.7%
41 | CC(C)C(CN1CCC(C)(c2cccc(O)c2)[C@@H](C)C1)NC(=O)C1Cc2ccc(O)cc2CN1 (stereo not given in full) | inconclusive: 27.9%
42 | COc1ccc(CC(=O)N2C[C@H]3C[C@@H](C2)c2cccc(=O)n2C3)cc1 | active: 27%
43 | O=C1NC(=O)N(CC2CCCO2)C(=O)/C1=C/c1cccs1 (stereo not given) | inconclusive: 38.2%
44 | COC(=O)[C@H]1[C@H](CO)[C@H]2Cn3c(ccc(/C=C/c4ccccc4)c3=O)[C@@H]1N2C(=O)C1CC1 | inactive: -11.1%

Row | Structure (SMILES) | CPE inhibition
45 | COC12C(COC(N)=O)C3=C(C(=O)C(C)=C(N)C3=O)N1CC1C2N1C (stereo not given) | inconclusive: 25.6%
46 | COCC(=O)N1[C@@H]2c3ccc(C4=CCCC4)c(=O)n3C[C@H]1[C@H](CO)[C@H]2C(=O)OC | inactive: -1.28%
47 | COC(=O)C1=C(c2cccc(OCc3ccccc3)c2)C[C@@H]2CC[C@H]1N2C(=O)NCc1ccc(Cl)cc1 | active: 24.6%
48 | O=c1c2ccccc2[nH]c(=S)n1-c1ccc2c(c1)OCCO2 | inconclusive: 23.5%
49 | CSc1ccc(CN2CCN(Cc3ccccc3Cl)CC2)cc1 | inactive: -4.21%
50 | CN(C)C(=O)Oc1ccc(OCc2cccc[n+]2C)cc1 | inconclusive: 27%
51 | CCOC(=O)[C@]12Cc3ccc(C)cc3[C@H]1N(C1CCCCC1)C(=O)c1cc(OC)ccc12 | active: 55.2%
52 | COc1cccc(-c2ccc3c(c2)C2c4cnnn4-c4ccccc4C(=O)N2CC3)c1 (stereo not given) | inconclusive: 47%
53 | Cc1c(C)c2ccc(OCC(=O)N3CCC(C(=O)O)(c4ccccc4)CC3)cc2oc1=O | inconclusive: 44.2%
54 | NS(=O)(=O)c1ccc(-c2ccc(C=C3C(=O)NC(=O)NC3=O)o2)cc1 | inactive: 11.2%
55 | CCNCC(O)c1cccc(O)c1 (stereo not given) | inconclusive: 51.7%
56 | Cc1cc(OC(C)C(=O)NCc2ccncc2)c2c3c(c(=O)oc2c1)CCC3 (stereo not given) | inactive: 16.9%
57 | O=C1CNC[C@@H]2[C@H](c3ccc(Br)cc3)[C@@H](CO)N12 | inconclusive: 21.5%
58 | CCCCn1nnnc1C(CCSC)N1CCC(n2c(=O)[nH]c3ccccc32)CC1 (stereo not given) | inactive: 15%
59 | O=C1NC(=O)N(Cc2ccco2)C(=O)/C1=C\c1cccn1CCOc1ccc(Cl)cc1 | inactive: -6.33%
60 | COc1ccc(C(=O)O)cc1OC | inconclusive: 35%
61 | CC(C)c1ccc(-n2c(O)c(/C=N/NC(=O)c3ccncc3)c(=O)[nH]c2=O)cc1 | inconclusive: 35.5%
62 | O=C(Cc1ccccc1)N1C[C@H]2[C@@H](c3ccccc31)[C@H](CO)N2Cc1ccccc1 | inconclusive: 54.2%
63 | COC(=O)Cn1cc(C=C2C(=O)N(C)C(=O)N(C)C2=O)c2ccccc21 | inconclusive: 23.1%
64 | CC/C=C/CC(=O)N[C@@H](c1ccccc1)[C@@H](O)C(=O)O[C@H]1C[C@@]2(O)[C@@H](OC(=O)c3ccccc3)C3[C@](C)(C(=O)[C@H](OC(C)=O)C(=C1C)C2(C)C)[C@@H](O)C[C@H]1OC[C@@]31OC(C)=O (stereo not given in full) | active: 28.1%
65 | O=C(NC1CCCCC1)N1Cc2ccc(Br)cc2-n2nncc2C1 | inconclusive: 21.9%
66 | Cc1ccc(S(=O)(=O)Oc2ccccc2C=C2C(=O)NC(=O)NC2=O)cc1 | inconclusive: 23.7%

Gathered by group, the entries above with fluorine.
Row | Structure (SMILES) | CPE inhibition
23 | O=c1[nH]c(O)c(C=Nc2cc(F)cc(F)c2)c(=O)[nH]1 | inconclusive: 43.2%
29 | COC(=O)C1=C(c2ccc(F)cc2F)C[C@@H]2CC[C@H]1N2C(=O)NCc1ccco1 | inconclusive: 20.4%
32 | FC(F)(F)c1ccc(-c2ccc3c(c2)CNCc2cnnn2-3)cc1 | inconclusive: 21.4%
33 | COC(=O)C1=C(c2ccc(OC(F)(F)F)cc2)C[C@@H]2CC[C@H]1N2C(=O)NCCOc1ccc(OC)cc1 | active: 26%
35 | CCOc1ccc(Cl)cc1CNCCc1ccccc1F | inconclusive: 57.4%
37 | O=C(N/N=C/c1c(O)n(Cc2ccc(F)cc2)c(=O)[nH]c1=O)c1ccccc1 | inactive: 8.67%

The list goes on:

Row | Structure (SMILES) | CPE inhibition
67 | COc1ccc(C=O)cc1O | inconclusive: 69.2%
68 | CN1C(=O)NC(=O)C(N=Nc2ccc(Cl)cc2)C1=O (stereo not given) | inconclusive: 87.1%
69 | O=c1cccc2n1CC1CC2CN(C(c2cccc(F)c2)c2sc3ncnn3c2O)C1 (stereo not given) | inconclusive: 28.3%
70 | COC(=O)[C@H]1[C@H](CO)[C@H]2Cn3c(ccc(-c4ccc(F)cc4)c3=O)[C@@H]1N2Cc1ccccc1 | inactive: -6.08%
71 | COc1ccc(-c2ccc([C@H]3[C@@H](CO)N4CCCCN(C(=O)Cc5ccncc5)C[C@H]34)cc2)cc1 | inconclusive: 20.2%
72 | O=C(Cc1cccnc1)N1CCCCN2[C@H](CO)[C@@H](c3ccc(C#CC4CCCC4)cc3)[C@H]2C1 | active: 39.6%
73 | CCC1CN2CCc3cc(OC)c(OC)cc3C2CC1CC1NCCc2c1[nH]c1ccc(O)cc21 (stereo not given) | inconclusive: 36.2%
74 | Cc1ccc(-n2c(O)c(C=NCCN3CCNCC3)c(=O)[nH]c2=S)cc1 | inconclusive: 26.3%
75 | CNC(=O)Oc1ccccc1C1CCCCC1 | inconclusive: 43.1%
76 | NCCc1c[nH]c2ccc(O)cc12 | inconclusive: 29.7%
77 | OC12ONC(c3ccccn3)C1N1CCC2CC1 (stereo not given) | inactive: 1.04%
78 | CCN(CC)C(=O)c1ccc(NC(=O)COc2ccc(-c3nn(C)c(=O)c4ccccc34)cc2)cc1 | inconclusive: 40.4%
79 | COc1ccc2c(c1)/C(=C/c1cnc[nH]1)C(=O)N2 | inactive: -1.07%
80 | COc1cccc(N=Cc2c(O)n(Cc3ccco3)c(=O)[nH]c2=O)c1 | inconclusive: 20.6%
81 | COc1cccc(-c2ccc([C@H]3[C@@H](CO)N4CCCCN(C(=O)Cc5ccncc5)C[C@@H]34)cc2)c1 | active: 27.2%
82 | CN(CCOc1ccc(C=C2C(=O)NC(=O)NC2=O)cc1)c1ccccn1 | inactive: 8.3%
83 | O=C(O)[C@H]1[C@H](CO)[C@H]2Cn3c(ccc(-c4cncnc4)c3=O)[C@@H]1N2C(=O)NC1CCCC1 | inactive: -5.51%
84 | O=P(Oc1ccccc1)(Oc1ccccc1)C(O)c1ccc(Cl)cc1 (stereo not given) | inconclusive: 65.5%
85 | O=C(Cc1ccccn1)N1CCCCN2[C@H](CO)[C@H](c3ccc(-c4ccc(F)cc4)cc3)[C@H]2C1 | inactive: -8.22%
